Data source: PubChem BioAssay AID652259 (Drosophila RNAi Screening Center, 2013)
The deposit covers about 22,000 reagents; this is an unselected part of those with a known target gene and a result. Of all reagents, 233 (1.1%) got an active call. 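Light values are raw, unnormalised plate reads; the ratio scores behind the reporter calls were not deposited.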 Names joined by + are all predicted targets of the reagent. Not given: the amount of reagent, the time to read-out, the dose of the treatment.

Aim: 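Genome-wide hunt for genes that control Wingless pathway activity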 (primary screen)
Cell system: Drosophila clone 8 imaginal disc epithelial cells
Reagents: long dsRNA against Drosophila genes
Conditions: pathway stimulated by co-transfected Wingless expression plasmid
Measured: 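Dual luciferase reads per well after Wingless plasmid stimulation: reporter firefly light and Renilla control light; activity is firefly divided by Renilla, a ratio not deposited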
Scale: firefly reporter light: higher = more Wg reporter light, before normalisation; Renilla control light: higher = more transfected or surviving cells
Hit rule: 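Strong candidates differ from their plate mean by at least two out of four per-plate statistical tests; weak candidates meet just one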
Meaning of the calls: active = candidate regulator (raises or lowers reporter); inactive = not a candidate

For PH4alphaSG2 [SID104194829], how do the results read?
firefly reporter light, replicate 1: 3958; Renilla control light, replicate 1: 2297; outcome: inactive

For CG14220 [SID104199369], what does the deposit list?
firefly reporter light, replicate 1: 28704; Renilla control light, replicate 1: 1058; outcome: inactive

How did the screen score neur + asRNA:CR31429 [SID104196805]?
firefly reporter light, replicate 1: 3365; Renilla control light, replicate 1: 1675; outcome: inactive

Which result is listed for CG9799 [SID104196359]?
firefly reporter light, replicate 1: 3600; Renilla control light, replicate 1: 1661; outcome: inactive

Records above whose gene name begins with C or c (2):
CG14220 [SID104199369] | firefly reporter light, replicate 1 = 28704; Renilla control light, replicate 1 = 1058; outcome = inactive
CG9799 [SID104196359] | firefly reporter light, replicate 1 = 3600; Renilla control light, replicate 1 = 1661; outcome = inactive

The results go on:
With CG31635 [SID104182065], what does the deposit list?
firefly reporter light, replicate 1: 2329; firefly reporter light, replicate 2: 3186; Renilla control light, replicate 1: 672; Renilla control light, replicate 2: 827; outcome: inactive

How did the screen score CG31635 [SID104182066]?
firefly reporter light, replicate 1: 2058; firefly reporter light, replicate 2: 5241; Renilla control light, replicate 1: 736; Renilla control light, replicate 2: 1952; outcome: inactive

Which result is listed for CG34325 [SID104199594]?
firefly reporter light, replicate 1: 23096; Renilla control light, replicate 1: 9530; outcome: inactive

Which result is listed for CG34325 [SID104199992]?
firefly reporter light, replicate 1: 25776; Renilla control light, replicate 1: 10064; outcome: inactive

How did the screen score CG14410 [SID104199388]?
firefly reporter light, replicate 1: 20167; Renilla control light, replicate 1: 10321; outcome: inactive

How did the screen score CG4751 [SID104182568]?
firefly reporter light, replicate 1: 6944; Renilla control light, replicate 1: 2200; outcome: inactive

Which result is listed for CG13563 [SID104201702]?
firefly reporter light, replicate 1: 6.50e5; firefly reporter light, replicate 2: 6.53e5; Renilla control light, replicate 1: 2.49e5; Renilla control light, replicate 2: 2.21e5; outcome: inactive

With CG9705 [SID104190886], what does the deposit list?
firefly reporter light, replicate 1: 12642; Renilla control light, replicate 1: 4492; outcome: inactive
